Entries after “also recorded” stand apart in the source; their conditions may differ.
Assay: Calcium phosphate precipitation on coated smooth titanium coupon in Simulated Body Fluid
Details: 222 μmol/mL
Text: Smooth titanium coupons were coated with phosphatidylserine only as described in Example 5 at 222 μmol/mL. The experimental protocol used was as described in Example 3.

Q: With Phosphatidylserine as the substance, how does the “incubation time after which white circles were visible” value (Simulated Body Fluid 37° C.) read?
A: a few minutes

Q: What about the “EDAX analysis of coated area (calcium and phosphorus)” value (Simulated Body Fluid 7 days 37° C.) of the same substance?
A: capable of binding calcium to the surface of different implant coupons; also recorded: significant peaks for calcium and phosphorus

Source: US20020165617A1, “Phospholipid-coated implants” (DESTINY PHARMA LIMITED, priority 1999, published 2002)
